Experimental data as given in article PMC9917443.
These are yes or no findings as the source states them, for the method shown. Some binding calls cover weakened binding; strength is not graded here.

Chains of the proteins cited; added tags and fusions are not shown. Lines headed by an entry give the natural chain unless they say otherwise; changes in a name come on top.
UniProt Q9Z0U4: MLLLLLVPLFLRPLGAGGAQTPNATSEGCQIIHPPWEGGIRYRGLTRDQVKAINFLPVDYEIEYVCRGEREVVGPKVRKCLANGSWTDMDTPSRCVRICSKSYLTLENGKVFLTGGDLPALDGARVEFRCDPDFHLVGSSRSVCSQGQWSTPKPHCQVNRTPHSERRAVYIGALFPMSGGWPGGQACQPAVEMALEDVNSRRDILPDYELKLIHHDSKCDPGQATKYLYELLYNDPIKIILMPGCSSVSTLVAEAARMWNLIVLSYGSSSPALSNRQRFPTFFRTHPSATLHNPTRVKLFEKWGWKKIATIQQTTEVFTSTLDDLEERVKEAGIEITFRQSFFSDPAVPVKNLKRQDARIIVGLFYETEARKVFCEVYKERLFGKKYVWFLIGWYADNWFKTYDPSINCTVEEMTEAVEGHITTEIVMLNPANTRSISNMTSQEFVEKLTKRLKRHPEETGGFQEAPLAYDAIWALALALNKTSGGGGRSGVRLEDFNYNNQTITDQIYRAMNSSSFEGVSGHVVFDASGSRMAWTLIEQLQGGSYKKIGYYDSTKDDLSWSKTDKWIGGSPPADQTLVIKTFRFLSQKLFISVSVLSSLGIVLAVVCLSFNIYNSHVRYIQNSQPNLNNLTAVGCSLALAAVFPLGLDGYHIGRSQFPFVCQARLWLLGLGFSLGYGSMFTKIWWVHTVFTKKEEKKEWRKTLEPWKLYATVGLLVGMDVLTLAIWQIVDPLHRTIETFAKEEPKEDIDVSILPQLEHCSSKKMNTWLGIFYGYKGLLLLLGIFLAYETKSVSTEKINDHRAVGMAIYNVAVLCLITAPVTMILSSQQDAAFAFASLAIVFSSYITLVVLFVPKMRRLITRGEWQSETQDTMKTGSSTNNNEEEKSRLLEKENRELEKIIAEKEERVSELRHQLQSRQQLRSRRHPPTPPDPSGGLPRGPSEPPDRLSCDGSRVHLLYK

Molecular target: GB1a/2 receptors expressed in HEK293T cells (UniProt Q9Z0U4)
Test: fluorescence of TMR-labelled peptide bound to cells (microplate reader); HEK293T cells expressing Flag-GB1a and Flag-GB2 in 96-well plates; 1 μM APP17-TMR with vehicle, 10 μM APP17 or 10 μM sc-APP17; 1 hr at room temperature; background of sc-APP17-TMR at cells transfected with empty vector subtracted; only the binder purified

binding: binds
Binder: DDSDVWWGGADTDYADG (N-terminal acetyl (Ac-); C-terminal amide (-NH2)) [APP17]
